The series is described as follows: general procedure: solution-phase peptide synthesis; N-hydroxysuccinimide / 1-ethyl-3-(3-dimethylaminopropyl)carbodiimide hydrochlori. As to conditions: for step yield: late stage modification step; for conjugation yield: conjugation step.
Where [1] appears, read: trifluoroacetate (deprotected intermediates).

This passage reports step yield and conjugation yield results from patent publication US11584800B2 (DAIICHI SANKYO COMPANY, LIMITED, priority 2014, dated 2023).

Take “Glycylglycyl-L-phenylalanyl-N-[2-(2-{[(1S,9S)-9-ethyl-5-fluoro-9-hydroxy-4-methyl-10,13-dioxo-2,3,9,10,13,15-hexahydro-1H,12H-benzo[de]pyrano[3′,4′:6,7]indolizino[1,2-b]quinolin-1-yl]amino}-2-oxoethoxy)ethyl]glycinamide”: under “trifluoroacetic acid salt”, the step yield is reported as 92%.
Regarding “N-[6-(2,5-Dioxo-2,5-dihydro-1H-pyrrol-1-yl)hexanoyl]glycylglycyl-L-phenylalanyl-N-[(carboxymethoxy)methyl]glycinamide”, under setting [1], the step yield was determined as 71%.
The same measure, in the same setting: in the case of “Glycylglycyl-L-phenylalanyl-N-[(carboxymethoxy)methyl]glycinamide” it was 82%.
In turn, “N-(tert-Butoxycarbonyl)glycylglycyl-L-phenylalanyl-N-(4-{[(1S,9S)-9-ethyl-5-fluoro-9-hydroxy-4-methyl-10,13-dioxo-2,3,9,10,13,15-hexahydro-1H,12H-benzo[de]pyrano[3′,4′:6,7]indolizino[1,2-b]quinolin-1-yl]amino}-4-oxobutyl)glycinamide” registered a conjugation yield under setting [1] of 73%.
On the same count and under the same terms, in the case of “N-(tert-Butoxycarbonyl)glycylglycyl-L-phenylalanylglycyl-N-[(1S,9S)-9-ethyl-5-fluoro-9-hydroxy-4-methyl-10,13-dioxo-2,3,9,10,13,15-hexahydro-1H,12H-benzo[de]pyrano[3′,4′:6,7]indolizino[1,2-b]quinolin-1-yl]-β-alaninamide” it was 87%.
As for “N-[3-(2,5-Dioxo-2,5-dihydro-1H-pyrrol-1-yl)propanoyl]glycylglycyl-L-phenylalanylglycyl-N-[(1S,9S)-9-ethyl-5-fluoro-9-hydroxy-4-methyl-10,13-dioxo-2,3,9,10,13,15-hexahydro-1H,12H-benzo[de]pyrano[3′,4′:6,7]indolizino[1,2-b]quinolin-1-yl]-β-alanin”, under setting [1], the conjugation yield was found to be 57%.
Under setting [1], “N-(tert-Butoxycarbonyl)glycylglycyl-L-phenylalanyl-N-[2-(2-{[(1S,9S)-9-ethyl-5-fluoro-9-hydroxy-4-methyl-10,13-dioxo-2,3,9,10,13,15-hexahydro-1H,12H-benzo[de]pyrano[3′,4′:6,7]indolizino[1,2-b]quinolin-1-yl]amino}-2-oxoethoxy)ethyl]glycinamide” came in with a conjugation yield of 95%.
As to “Glycylglycyl-L-phenylalanylglycyl-N-[(1S,9S)-9-ethyl-5-fluoro-9-hydroxy-4-methyl-10,13-dioxo-2,3,9,10,13,15-hexahydro-1H,12H-benzo[de]pyrano[3′,4′:6,7]indolizino[1,2-b]quinolin-1-yl]-β-alaninamide trifluoroacetate”, the step yield (trifluoroacetate) was found to be 92%.
Turning to “N-[6-(2,5-Dioxo-2,5-dihydro-1H-pyrrol-1-yl)hexanoyl]glycylglycyl-L-phenylalanylglycyl-N-[(1S,9S)-9-ethyl-5-fluoro-9-hydroxy-4-methyl-10,13-dioxo-2,3,9,10,13,15-hexahydro-1H,12H-benzo[de]pyrano[3′,4′:6,7]indolizino[1,2-b]quinolin-1-yl]-β-alanina”, the conjugation yield under setting [1] came out at 21%.
In the case of “Glycylglycyl-L-phenylalanyl-N-(4-{[(1S,9S)-9-ethyl-5-fluoro-9-hydroxy-4-methyl-10,13-dioxo-2,3,9,10,13,15-hexahydro-1H,12H-benzo[de]pyrano[3′,4′:6,7]indolizino[1,2-b]quinolin-1-yl]amino}-4-oxobutyl)glycinamide”, the step yield (trifluoroacetate) worked out at 99%.
